Source: PubChem BioAssay AID1794844 (National Center for Advancing Translational Sciences (NCATS), 2023)
Fewer than 10 of roughly 2,800 compounds were called active. Not shown: some 7% with an inconclusive outcome. Calls come from the whole dose curve; as a rule, active = well fitted inhibition curve with a large enough effect; inconclusive = small, poorly fitted or top-dose-only effect; inactive = no such curve, though single readings can be large or run the other way. Some of the results follow.

Chains of the proteins cited; added tags and fusions are not shown. Lines headed by an entry give the natural chain unless they say otherwise; changes in a name come on top.
UniProt C7C422: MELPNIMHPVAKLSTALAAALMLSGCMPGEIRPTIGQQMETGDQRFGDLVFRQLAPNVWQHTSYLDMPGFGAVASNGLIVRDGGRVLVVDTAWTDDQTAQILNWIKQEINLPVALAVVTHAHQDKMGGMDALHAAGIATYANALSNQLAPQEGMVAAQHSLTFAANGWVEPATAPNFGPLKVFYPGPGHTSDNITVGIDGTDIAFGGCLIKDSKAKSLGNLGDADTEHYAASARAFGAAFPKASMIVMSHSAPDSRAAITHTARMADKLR

What follows are compounds tested against Metallo-beta-lactamase type 2 (Klebsiella pneumoniae) (UniProt C7C422) (assay: qHTS to identify inhibitors of the New Delhi Metallo-beta-lactamase (NDM): Nitrocefin screen against the machine-based learning selections.). Conditions: NDM-1 enzyme, nitrocefin hydrolysis, absorbance 485 nm; activity, negative = inhibition: at the top concentration.
Source text: Assay Submitter (PI): James Inglese Ph.D., Patricia Dranchak Ph.D., Mahesh Aitha Ph.D. Assay Development and Screening Technology Laboratory (ADST) National Center for Advancing Translational Sciences (NCATS), Rockville, MD National Institute of Health (NIH), Bethesda, Maryland The metallo-beta-lactamases (MBL) are a main antibiotic resistance mechanism evolved by bacteria. There is an urgent clinical need for MBL inhibitors to mitigate this growing threat. To support a machine-based learning study, qHTS has been used to experimentally test inhibitors identified by prediction tools.
PROTOCOL TABLE (as described by Inglese et al., 2007) SEQUENCE No. (e.g., 1, 2, 3, etc.); […] (e.g., enzyme, Incubation, Reagent, etc.); VALUE; DESCRIPTION Primary Screen 1; NDM-1; 4 uL of 3 nM enzyme [2 nM final] in 50 mM HEPES (pH 7.0), 1 uM […], 0.01% Tween20; Use BioRaptr to dispense into two sets of Aurora black, clear bottom high base 1536-well plates 2; Compounds; 23 nL; Use Pin Tool (Wako) to transfer DMSO control and library compounds in DMSO 3; Incubate; >30 min 4a; Reagent; 2 uL of 50 uM nitrocefin [16.7 uM final] to one set of assay plates 4b; Reagent; 2 uL of 150 uM meropenem [50 uM final] to second set of assay plates 5a; Incubate; 15 min 5b; Incubate; 30 min 6a; Detector; Absorbance at 485 nm (bandwidth = 5 nm, 25 flashes/well) on Tecan Infinity 6b; Detector; Absorbance at 300 nm (bandwidth = 5 nm, 25 flashes/well) on Tecan Infinity NOTES (numbers refer to sequence above) 1; Column 1 of each plate received assay buffer without enzyme and columns 2-48 received enzyme for a final assay concentration of 2 nM. 2; Control plate contained DMSO in columns 1, 2, 3, and 4. 3; Compound interaction with enzyme. 4; Nitrocefin and meropenem substrates were prepared in the same assay buffer as step 1 for a final assay concentration of 16.7 uM and 50 uM, respectively, and added to all wells across respective sets of assay plates. 5; Default reader settings were applied for absorbance read at 485 nm (nitrocefin) or 300 nm (meropenem), bandwidth = 5 nm, 25 flashes/well. References: Inglese J, Shamu CE, Guy RK. 2007. Reporting data from high-throughput screening of small-molecule libraries. Nat Chem Biol. doi:10.1038/nchembio0807-438 Yasgar A, Shinn P, Jadhav A, Auld D, Michael S, Zheng W, Austin CP, Inglese J, Simeonov A. 2008. Compound Management for Quantitative High-Throughput Screening. J Lab Autom 13:79 - 89. doi:10.1016/j.jala.2007.12.004
Note: % of control where 0% means no effect.

activity, negative = inhibition, inactive:
COCc1cc(C[C@@H]2CC[C@H](O)[C@@H](CNC(=O)C3CCCC3)O2)no1 -10.6% [at 57.5 µM]
O[C@H]1CC[C@@H](Cc2cc(COc3ccccc3)on2)O[C@@H]1CN(CC1CC1)CC1CC1 4.07% [at 57.5 µM]
CC(C)NS(=O)(=O)c1cc(C(=O)O)cc(-c2cccc3c2OCC3)c1 7.31%
CCCN(CC1CC1)C(=O)C1CCC(=O)N(Cc2ccc(Cl)cc2)C1 (centres undefined) 2.23%
CN(C)Cc1cn(C[C@H]2C[C@@H](NC(=O)c3nc4ccccc4s3)[C@H](O)[C@@H]2O)nn1 -6.95%
Cc1cccc2c1nc1n2[C@@H](CNCc2ccc(C#N)cc2)COC1 0.835% [at 57.5 µM]
Fc1ccccc1CN1CCNc2cc(Nc3cccnc3)ncc2C1 6.12% [at 57.5 µM]
Fc1ccc2nc([C@H]3CCN(C4CCC4)C3)[nH]c2c1 14% [at 76.7 µM]
O=c1[nH]c(-c2ccc(F)cc2)nc2c1CCN(S(=O)(=O)c1cccs1)C2 -13.6%
Nc1nc(C2CC(O)C2)cc(N2CCCN(Cc3ccccn3)CC2)n1 (centres undefined) -3.26%
CCO[C@H]1CN(C(=O)Cc2ccc3nc(C)[nH]c3c2)C[C@@H]1O 3.02%
Cc1noc(C)c1[S+](=O)([O-])N1CCC2(C1)N=C(c1cccnc1)C(=O)N2 (centres undefined) -6.07%
COCc1ccc(CN[C@H]2C[C@@H](Cc3cc(CN4CCCCC4)on3)C2(C)C)o1 -0.793% [at 57.5 µM]
CNC(=O)C1CCCN(Cc2nc(-c3cccc(Oc4ccccc4)c3)oc2C)C1 (centres undefined) -2.13%
Oc1cccc(Nc2cnc3ccc(-c4ccc(F)cc4)nn23)c1 7.06% [at 57.5 µM]
O=C(NC[C@H]1O[C@@H]2C[C@@H](CC(=O)N3CCC(F)(F)C3)O[C@@H]2[C@@H]1O)Nc1cccc(Cl)c1 -0.802%
COc1ccc(CNC(=O)C[C@@H]2C[C@H]3O[C@H](CNC(=O)NCc4ccccc4)[C@@H](O)[C@H]3O2)cc1 -0.956%
NC(=O)c1cccc(-c2cc3c(cn2)CN(Cc2ccncc2)CCN3)c1 -0.63% [at 57.5 µM]
O=c1c2nc(Nc3ccc(C(F)(F)F)cc3)ccc2ncn1Cc1ccccn1 2.24% [at 57.5 µM]
CCN(CC)C(=O)C(C)[C@@H]1CC[C@@]2(C)Cc3sc(NC(=O)C4CC4)nc3[C@@H](C)[C@@H]2[C@H]1O (some centres undefined) 1.47%
Cc1ccc(NC(=O)c2ccccc2)c(NC(=O)C2CCN(CC(N)=O)CC2)c1 9%
OC[C@H]1CCN(c2ccnc3c(C(F)(F)F)cccc23)C[C@H]1O 2.12%
CC(=O)N1CCN(c2cc(-c3noc([C@@H]4CCCN4Cc4ccc(N(C)C)cc4)n3)ccn2)CC1 0.0299%
NC(=O)[C@@H](Cc1c[nH]c2ccccc12)NC(=O)[C@@H]1[C@@H](NC(=O)NC2CCCCC2)CCN1C(=O)c1cnccn1 -0.0947%
O=C(c1cccnc1)N1CC[C@H]2COC(=O)N2c2cc(F)ccc2C1 129% [at 57.5 µM]
Cc1cccc(-c2cnc3n[nH]c(-c4ccccc4)c3n2)c1 3.91% [at 76.7 µM]
O=C(O)CN1CCNc2nc(CNc3ccc(F)cc3)n(Cc3ccccc3)c2C1=O 1% [at 57.5 µM]
Cc1ccc(F)cc1S(=O)(=O)N1CCn2c(n[nH]c2=O)C1 -3.37%
Cc1ccccc1-c1cnc2[nH]cc(CC(=O)NCc3ccccc3)c2c1 7.78% [at 57.5 µM]
Cc1ccc(S(=O)(=O)NC[C@H]2O[C@H](Cc3cc(-c4cccc(O)c4)on3)CC[C@@H]2O)cc1 -4.07%
CC(=O)c1[nH]c(C)c(C(=O)N2CCCC(O)(CNC(=O)N(C)C)CC2)c1C (centres undefined) 1.09%
Oc1ccccc1CN1CC(CNc2cccnc2)C2(C1)CN(c1ccccc1)C2 (centres undefined) -0.4% [at 57.5 µM]
COc1ccc(CN2C[C@H](O)C[C@H]2c2nc(CS(=O)(=O)c3ccc(F)cc3)no2)cc1 2.79%
COc1ccccc1-c1ccnc(N[C@H]2CO[C@H]3[C@@H]2OC[C@@H]3NC(=O)Nc2cccc(C(F)(F)F)c2)n1 6.31%
NC(=O)C1CCN(CC[C@H]2CN(C(=O)Nc3ccc(OC(F)(F)F)cc3)CC[C@H]2CC(=O)O)CC1 -0.965%
O=C(N[C@@H]1CCN(C(=O)c2ccc3cc[nH]c3c2)C[C@H]1O)c1cnccn1 -3.34%
COCCNC(=O)[C@@H]1CCC[C@@H](NC(=O)c2ccc(Cl)cc2)CN(C)C(=O)C1 11.9% [at 57.5 µM]
COc1ccccc1C(O)c1nc(Nc2cccc(F)c2)n[nH]1 (centres undefined) 35.8% [at 57.5 µM]
COc1ccc(NC(=O)N2CCc3c(nc4cc(-c5ccccc5)[nH]n4c3=O)C2)c(OC)c1 -10%
CN(Cc1ccc(F)cc1)C(=O)C1CCCC1 -0.943% [at 57.5 µM]
COc1ccc(-c2ccnc(N[C@H]3CO[C@H]4[C@@H]3OC[C@@H]4NS(=O)(=O)c3ccc(C)cc3)n2)cc1 -6.55%
CCNC(=O)N1C[C@@H]2OCC(=O)N(C(C)C)[C@@H]2C1 -9.65% [at 76.7 µM]
Cn1ccnc1-c1ccc(N2CC[C@](C)(O)[C@@H](O)C2)nn1 -4.12%
O=C(N[C@@H]1CCOC[C@H]1OCCO)c1cc(-c2ccsc2)n[nH]1 1.53%
Cc1noc2nc3c(c(C(=O)N[C@H]4CC[C@H]4NC4CCCC4)c12)CCC3 -6.89%
Cc1ccsc1CN1CC(Oc2ccccc2C(=O)NC2CC2)C1 1.08%
CC(C)(C)c1ccc(-c2cc(C[C@H]3CNCC[C@H]3CC(=O)NCc3cccs3)no2)cc1 4.45%
Fc1ccc(-c2nnc3ccc(NCCc4ccccc4)nn23)nc1 -3.49% [at 57.5 µM]
COc1ccccc1-c1nnc([C@H]2CCN(C3CCN(C)CC3)C2)o1 -3.28% [at 57.5 µM]
Cc1ccc(CN2CC[C@H](c3nnc(-c4ccco4)o3)C2)o1 -6.62% [at 57.5 µM]
CNC(=O)c1cccc(-c2cnc(Nc3ccncc3)c3c2CCO3)c1 9.35% [at 57.5 µM]
O=C(c1cccs1)C1CCCN(C(=O)c2ccc3nccn3c2)C1 (centres undefined) 3.16%
CCN(CC)Cc1cnc2c(C(=O)NCCc3c[nH]c4ccccc34)cnn2c1 1.8%
CC1=C[C@@H](CNC(=O)Nc2ccc(Cl)cc2)[C@H](C(C)C)C[C@H]1CC(=O)N(C)Cc1cccnc1 4.87%
Oc1ccccc1-c1cc(-c2cccnc2)c2cncn2c1 -14.5% [at 76.7 µM]
CCOc1ccccc1NC(=O)Cn1ccn2nc(-c3ccccc3)c(CO)c2c1=O 0.938%
CC1(COc2cccnc2)COc2ccc(C(=O)NC3CCC(O)CC3)cc2N1 (centres undefined) 3.42% [at 57.5 µM]
O=C(O)c1cc(-c2cn[nH]c2)cc(S(=O)(=O)N2CCSCC2)c1 -0.448%
COc1ccc(C(=O)N[C@H]2C[C@H]3C(=O)Nc4cc(Cl)ccc4C(=O)N3C2)cc1 2.62% [at 57.5 µM]
NS(=O)(=O)c1ccc(-n2nc(C3CCOC3)nc2C2CCC2)cc1 (centres undefined) 2.93%
COc1ccc(CN2C(=O)CO[C@H](c3ccc(NC(=O)NC(C)(C)C)cc3)[C@H]2CO)cc1 2.65%
COc1ccc(CCC(=O)N2CCCN(c3cc(-c4ccc(Br)cc4)[nH]n3)CC2)cc1 -5.46%
CN1CCCC1c1nc(C2CN(C(=O)CCCc3c[nH]c4ccccc34)C2)no1 (centres undefined) 4.48%
COCCNC(=O)CC[C@]12CC[C@](C)(O)C[C@H]1C(C)(C)C[C@@H]2NC(=O)c1ccc(C(F)(F)F)cc1 1.98%
O=C(NCc1ccc(F)cc1)c1cc(-c2ccc[nH]2)n[nH]1 -11.9%
Cc1noc(-c2ccc(OC3CN(C(=O)CCCc4ccccc4)C3)cc2)n1 0.841%
COCc1nc(-c2ccc(OC3CCN(S(=O)(=O)c4c(C)noc4C)C3)cc2)no1 (centres undefined) -2.86%
COc1ccc(CN2C[C@@H](F)[C@@H](OCc3nc4ccc(C)cc4[nH]3)C2)cc1 -0.27% [at 57.5 µM]
COc1ccc(C(=O)NC2CCN(c3cc(-c4ccc(Cl)cc4)[nH]n3)C2)cc1OC (centres undefined) -11.8%
COc1ccc(-c2[nH]nc3ncc(C(=O)NCCc4ccccc4)nc23)c(C)c1 10% [at 57.5 µM]
C[C@H](O)c1c(-c2ccc(F)cc2)noc1C(=O)N1CCC1 1.94% [at 76.7 µM]
Cc1nn(C)c2ncc(C(=O)O)c(NC3CC(c4cc(=O)[nH]cn4)C3)c12 (centres undefined) -6.8%
O=C(CC[C@H]1NC(=O)c2ccccc2NC1=O)Nc1nc2c(s1)CCC2 -5.89%
Cc1ccc(C2(O)CCN(C(=O)[C@@H](N)Cc3cnc[nH]3)CC2)nc1 -1.53%
F[C@@H]1CN(C2CCC2)C[C@@H]1OCc1nc2ncccc2[nH]1 -1.72% [at 76.7 µM]
CC[C@H]1CN(S(=O)(=O)c2c(C)noc2C)CC[C@H]1CC(=O)NCc1ccco1 8.36% [at 57.5 µM]
C[C@@H](NC(=O)c1cccs1)c1onc(-c2ccc(F)cc2)c1C(=O)O -1.6% [at 57.5 µM]
CN1Cc2ccc(Nc3ccccc3)nc2C(C)(C(=O)NCCc2cnc[nH]2)C1 (centres undefined) 1.99% [at 57.5 µM]
C=CCO[C@@H]1C[C@H]2C(=O)Nc3ccc(-c4ccc(F)cc4F)cc3C(=O)N2C1 2.98% [at 57.5 µM]
Nc1nc(C2CC(O)C2)cc(N2CCC(CCN3CCCC3=O)CC2)n1 (centres undefined) 4.84%
O=C(Nc1ccc(C2(C(=O)NCc3ccco3)CCCCC2)cc1)C1CC1 11.8%
NC(=O)c1cccnc1N1CCC2(CCCN(Cc3cccc(F)c3F)C2)C1 (centres undefined) 63.7%
CCC(CC)C(=O)N1CCC(N2C(=O)C3(CCCCC3)C2c2ccncc2)CC1 (centres undefined) 0.833%
CSCC(=O)N1C[C@@H](NC(=O)Nc2ccc(F)cc2F)C[C@H]1C(=O)N[C@@H](Cc1cccs1)C(N)=O -3.42%
N#Cc1cccc(CN2CCOC[C@H]2c2ncc(-c3ccccc3)[nH]2)c1 1.13% [at 57.5 µM]
CN1CCCn2nc(C(=O)NC34CC5CC(CC(C5)C3)C4)cc2C1 20%
O=C(c1cc(-c2ccncc2)n[nH]1)N1CCC2(CC1)Nc1ccccc1NC2=O -14.3%
CC(C)c1nc2c(c(-c3ccc(O)cc3)n1)CN(C(=O)c1ccccc1F)CC2 0.446%
COCCNS(=O)(=O)c1cc(C(=O)O)cc(-c2ccncc2)c1 -1.19%
CC(=O)N1CCC(N2CCC[C@H]2c2nc(-c3ccnc(N4CCC(C(N)=O)CC4)c3)no2)CC1 -1.02%
COCc1noc(CC2CCOC3(CCN(C(=O)NC4CCCCC4)CC3)C2)n1 (centres undefined) 11%
CCN(C(=O)Cn1nc2n(c1=O)CCCCC2)c1ccccc1 -8.61%
Cc1cccc(CC(C)NC(=O)c2ccc3nc(Cc4ccccc4F)oc3c2)n1 (centres undefined) -2.71%
c1coc(CN[C@H]2CO[C@H]3[C@@H]2OC[C@@H]3n2nnnc2Oc2ccc(-n3cncn3)cc2)c1 0.154%

Grouped by structure: the entries above containing a cyano group
activity, negative = inhibition, inactive:
Cc1cccc2c1nc1n2[C@@H](CNCc2ccc(C#N)cc2)COC1 0.835% [at 57.5 µM]
N#Cc1cccc(CN2CCOC[C@H]2c2ncc(-c3ccccc3)[nH]2)c1 1.13% [at 57.5 µM]
